# Primary screen of a compound library

Mtb growth Cornell: 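Whole-cell assay for inhibitors of Mycobacterium tuberculosis growth, labelled Cornell in the record; the read-out is not stated. The concentration is filed as 10 mM, unlikely as a test dose, so the dose is not known. Higher means stronger inhibition (inferred from two other growth screens of the library). Of about 53,000 compounds tested this way, about 900 (1.7%) reached 50% or more in at least one test.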
Mtb heat-shock: 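Assay on Mycobacterium tuberculosis, filed only as a heat shock assay from Cornell; the read-out is not stated. The concentration is filed as 10 mM, unlikely as a test dose, so the dose is not known. Higher reads as stronger inhibition (inferred: compounds with an IC50 in retests scored well above the rest). Of about 69,000 compounds tested this way, about 930 (1.4%) reached 50% or more in at least one test.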

Results are given as percent effect. The record does not define 0% and 100%; most values in the screen are far below 50% and negative numbers occur (in some assays of this library far below -100). Compounds were drawn at random from those tested, without regard to their results.

Result for COc1ccc(-n2ncc3c2NC(=O)CSC3CC(C)C)cc1 (centres unmarked) was Mtb growth Cornell: 33%; Mtb heat-shock: 15.74%.
Result for CC(C)n1[nH]c(=O)c2c1NC(=O)CC2c1cccc(Br)c1 (centres unmarked) was Mtb growth Cornell: -51.96%; Mtb heat-shock: 0.8423%.
Result for Cn1ccnc1CN1CCN(CC(=O)NCC(F)(F)F)CC1 was Mtb growth Cornell: 10.19%; Mtb heat-shock: 5.281%.
Result for O=C(c1cccnc1O)N(Cc1cccs1)CC1CCCO1 (centres unmarked) was Mtb growth Cornell: 2.678%; Mtb heat-shock: -20.67%.
Result for COc1ccc(-n2cnnc2SCC(=O)NC(C)C)cn1 was Mtb growth Cornell: -14.42%; Mtb heat-shock: 0.3519%.
Result for COCCCNC(=O)Cc1cc(-c2ccc3c(c2)OCO3)on1 was Mtb growth Cornell: -35.26%; Mtb heat-shock: -0.8361%.
Result for Cc1ccc(CN(CCCn2ccnc2)Cc2ccccc2O)s1.O=C(O)CC(O)(CC(=O)O)C(=O)O was Mtb growth Cornell: -13.23%; Mtb heat-shock: 35.85%.
Result for Cc1cccc(C(C(=O)N(C)Cc2cc(C)no2)N(C)C)c1 (centres unmarked) was Mtb growth Cornell: -8.682%; Mtb heat-shock: -8.225%.
Result for [H][C@]12CC[C@]([H])(CN(S(=O)(=O)c3cccc(F)c3)C1)N(Cc1ccccc1)C2 was Mtb heat-shock: 29.01%.
Result for Cc1nnc(CN(C)CC(=O)N2CCCC(C(F)(F)F)C2)n1C (centres unmarked) was Mtb heat-shock: -176.2%.
Result for CCc1ccc(C(=O)N(CC(F)(F)F)C2CCCOC2)o1 (centres unmarked) was Mtb growth Cornell: -39.53%; Mtb heat-shock: 16.75%.
Result for CS(=O)(=O)CCC(=O)Nc1ccsc1 was Mtb heat-shock: -110.7%.
Result for COCc1c(Br)cccc1NC(=O)N(C)CCO was Mtb growth Cornell: 21.61%; Mtb heat-shock: 1.248%.
Result for Clc1ccccc1-c1nnc(CN2CCCC2Cn2cncn2)o1 (centres unmarked) was Mtb heat-shock: -4.189%.
Result for CN(C)C(C(=O)N1CC(Oc2ccccc2F)C1)c1ccc(F)cc1 (centres unmarked) was Mtb heat-shock: -1.83%.
Result for CC1CCN(CC2(O)CCCN(Cc3cccc(F)c3F)C2=O)CC1 (centres unmarked) was Mtb heat-shock: -24.55%.
Result for Cn1ccc(CN2CCC(CN3CCOCC3)CC2)cc1=O was Mtb heat-shock: -40.68%.
Result for CCNc1ncc2c(n1)CN(c1cccc(OC)c1)C2=O was Mtb heat-shock: 4.456%.
Result for Cc1cc(N2CCC(Cc3ncccn3)C2)ncn1 (centres unmarked) was Mtb growth Cornell: -7.695%; Mtb heat-shock: -7.024%.
Result for CCOc1ccccc1CN(CC)Cc1ccc(S(C)(=O)=O)cc1 was Mtb heat-shock: -4.482%.
Result for CCc1nc(CC)n(CC(=O)N(C)Cc2ccc(F)cc2)n1 was Mtb growth Cornell: -17.06%; Mtb heat-shock: -23.61%.
Result for CC(NC(=O)Cn1cc(C(N)=O)c(-c2ccccc2)n1)C1CC1 (centres unmarked) was Mtb growth Cornell: -19.42%; Mtb heat-shock: 7.872%.
Result for CN1CCC(N(C)C(=O)c2cnn(-c3cc(F)ccc3F)c2N)CC1 was Mtb growth Cornell: 6.912%; Mtb heat-shock: 31.27%.
Result for Cc1cc(N2CCc3cncnc3C2)n2nc(C(F)(F)F)nc2n1 was Mtb growth Cornell: 9.973%; Mtb heat-shock: 1.105%.
Result for [H][C@@]12CCN(CC3CCOCC3)[C@@]1([H])CCN2C(=O)c1ccco1 was Mtb heat-shock: 5.054%.
Result for O=C(NCCc1nnc2n1CCC2)NCC1(c2ccccc2F)CC1 was Mtb heat-shock: -24.5%.
Result for COCCN1CCC2(CCN(Cc3nccs3)CC2)C1=O was Mtb growth Cornell: 30.58%; Mtb heat-shock: 5.059%.
Result for CCc1ccc(C(=O)N2CCC(Nc3ccc(C)nn3)CC2)o1 was Mtb growth Cornell: 29.19%; Mtb heat-shock: -3.245%.
Result for Cc1cccc(N2CCOC(C(=O)O)C2)c1 (centres unmarked) was Mtb growth Cornell: -25.78%; Mtb heat-shock: -4.45%.
Result for Cc1nn(C)c(N(C)C)c1CNCCC(=O)NC1CCCCC1 was Mtb growth Cornell: 12.24%; Mtb heat-shock: -12.45%.
Result for Cn1c(N)nnc1SC1CCCN(c2ccccc2F)C1=O (centres unmarked) was Mtb growth Cornell: -1.543%; Mtb heat-shock: -0.05419%.
Result for O=C(Nc1ccc2c(c1)OCCO2)N1CCCN(Cc2cccs2)CC1 was Mtb growth Cornell: 5.426%; Mtb heat-shock: -40.94%.
Result for COc1ccc(-c2nnc(SC(C)C(N)=O)[nH]2)c(OC)c1 (centres unmarked) was Mtb growth Cornell: 10.31%; Mtb heat-shock: 1.76%.
Result for O=C(Nc1ccc(F)c(Cl)c1)N1CCCN([C@H]2COC[C@@H]2O)CC1 was Mtb growth Cornell: 10.43%; Mtb heat-shock: -27.27%.
Result for O=C(c1cc2c(s1)CCCC2)N1CCCC1Cn1cccn1 (centres unmarked) was Mtb growth Cornell: 4.767%; Mtb heat-shock: 0.06318%.
Result for COc1ccccc1CN(C)C(=O)C[S+]([O-])Cc1cc(C)on1 (centres unmarked) was Mtb growth Cornell: -17.95%; Mtb heat-shock: 15.85%.
Result for CCCNC(=O)CNC(=O)c1scnc1C was Mtb growth Cornell: -19.92%; Mtb heat-shock: 12.28%.
Result for CSCCc1n[nH]c2c1CN(S(=O)(=O)c1cn(C)c(C)n1)CC2 was Mtb growth Cornell: 13.48%; Mtb heat-shock: 11.15%.
Result for Cc1cnn(CCNCc2c(C)nn(-c3ccccc3)c2C)c1 was Mtb growth Cornell: 24.81%; Mtb heat-shock: 4.285%.
Result for COc1cc(C(=O)NC(C)(C)CN2CCN(C)CC2)c2ccccc2n1 was Mtb growth Cornell: 41.04%; Mtb heat-shock: 2.375%.
Result for CCN(CC)c1nc2sc(C(=O)NC(C)(C)C(=O)OC)cc2s1 was Mtb growth Cornell: 3.289%; Mtb heat-shock: 13.05%.
Result for Cc1nn(C)cc1-c1ccnc(N2CCCN(CC(C)C)CC2)n1 was Mtb growth Cornell: 13.66%; Mtb heat-shock: -17.02%.
Result for CCc1cc(=O)[nH]c(SCc2ccccn2)n1 was Mtb growth Cornell: -15.86%; Mtb heat-shock: 70.99%.
Result for COCCCN1CCC(CNc2nccc(-c3cnn(C)c3)n2)C1 (centres unmarked) was Mtb growth Cornell: 14.56%; Mtb heat-shock: -20.23%.
Result for COc1ccc(C(=O)NS(=O)(=O)c2ccc(C#N)cc2C(F)(F)F)cc1 was Mtb growth Cornell: 24.18%; Mtb heat-shock: 12.51%.
Result for COc1ccc(CN(C)[C@@H]2CN(C(=O)c3ccnn3C)C[C@H]2O)cc1 was Mtb growth Cornell: 16.01%; Mtb heat-shock: -1.738%.
Result for O=C(NCc1cccc(F)c1F)c1cc(CN2CCCC(O)C2)on1 (centres unmarked) was Mtb growth Cornell: 10.16%; Mtb heat-shock: -37.88%.
Result for Cc1ccccc1OC1CCN(CC(=O)Nc2cn(C)nc2C)CC1 was Mtb growth Cornell: 69.1%; Mtb heat-shock: -18.16%.

Once more, the final 5:

compound	Mtb growth Cornell	Mtb heat-shock
COCCCN1CCC(CNc2nccc(-c3cnn(C)c3)n2)C1 (centres unmarked)	14.56	-20.23
COc1ccc(C(=O)NS(=O)(=O)c2ccc(C#N)cc2C(F)(F)F)cc1	24.18	12.51
COc1ccc(CN(C)[C@@H]2CN(C(=O)c3ccnn3C)C[C@H]2O)cc1	16.01	-1.738
O=C(NCc1cccc(F)c1F)c1cc(CN2CCCC(O)C2)on1 (centres unmarked)	10.16	-37.88
Cc1ccccc1OC1CCN(CC(=O)Nc2cn(C)nc2C)CC1	69.1	-18.16

Data taken from ChEMBL document CHEMBL3988442, “University of Dundee, Small-Polar-MMV Screening Library” (2021).